Some of the results follow.
How the values were obtained:
Assay in all cases: log2 fold change, soluble protein after heating vs DMSO (PISA); higher = thermal stabilisation; K562 lysate, 10 uM; active = over 0.2 and 3.5 SD of the protein, either way, in both replicates (recomputed)
ibrutinib = compound: C=CC(=O)N1CCC[C@@H](n2nc(-c3ccc(Oc4ccccc4)cc3)c3c(N)ncnc32)C1 [ibrutinib]
How it was run: (§1)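 K562 pellets were dounce-homogenised in PBS pH 7.4 with 1 mM MgCl2, and the crude extract at 1 mg/mL protein was treated with 10 μM compound for 30 min. Aliquots were heated for 3 min across 48°C-58°C, pooled, and brought to 0.5% NP-40 at 4°C; soluble protein was the supernatant after 21,000xg for 90 min. Soluble protein was quantified by TMTpro 16plex LC-MS/MS with channel sums equalised, and reported as log2 fold change in thermal stability against DMSO controls, with values from duplicates.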

Amino acid sequences for entries named in this document (tags omitted). A change or cut given only in a name is not applied to a line headed by its entry.
UniProt Q8TDZ2: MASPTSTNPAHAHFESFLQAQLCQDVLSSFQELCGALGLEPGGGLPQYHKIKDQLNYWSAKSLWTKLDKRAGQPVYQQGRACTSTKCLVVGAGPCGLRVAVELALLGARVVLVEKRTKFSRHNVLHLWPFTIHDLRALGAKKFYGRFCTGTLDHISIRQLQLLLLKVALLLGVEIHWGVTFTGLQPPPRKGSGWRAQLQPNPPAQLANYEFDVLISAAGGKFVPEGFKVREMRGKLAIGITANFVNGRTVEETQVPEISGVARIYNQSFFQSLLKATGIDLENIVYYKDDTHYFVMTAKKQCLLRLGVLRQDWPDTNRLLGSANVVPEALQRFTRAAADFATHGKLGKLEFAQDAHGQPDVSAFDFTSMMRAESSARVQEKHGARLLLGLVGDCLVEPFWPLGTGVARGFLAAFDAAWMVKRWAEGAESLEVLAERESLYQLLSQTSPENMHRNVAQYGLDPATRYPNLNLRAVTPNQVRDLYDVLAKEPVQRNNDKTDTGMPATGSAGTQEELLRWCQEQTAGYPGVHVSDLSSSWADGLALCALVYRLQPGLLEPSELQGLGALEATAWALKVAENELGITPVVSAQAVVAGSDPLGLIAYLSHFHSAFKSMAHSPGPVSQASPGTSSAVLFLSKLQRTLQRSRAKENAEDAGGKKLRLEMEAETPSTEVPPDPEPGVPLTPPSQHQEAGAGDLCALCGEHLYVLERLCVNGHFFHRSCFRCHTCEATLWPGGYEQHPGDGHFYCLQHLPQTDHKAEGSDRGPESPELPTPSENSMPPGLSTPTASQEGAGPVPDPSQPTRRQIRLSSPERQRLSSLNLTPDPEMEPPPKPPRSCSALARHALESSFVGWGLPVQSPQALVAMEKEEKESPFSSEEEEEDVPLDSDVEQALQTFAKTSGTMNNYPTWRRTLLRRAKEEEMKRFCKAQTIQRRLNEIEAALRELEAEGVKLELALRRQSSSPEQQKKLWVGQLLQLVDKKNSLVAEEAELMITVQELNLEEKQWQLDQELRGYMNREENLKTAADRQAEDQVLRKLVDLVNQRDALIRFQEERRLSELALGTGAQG
UniProt Q13724: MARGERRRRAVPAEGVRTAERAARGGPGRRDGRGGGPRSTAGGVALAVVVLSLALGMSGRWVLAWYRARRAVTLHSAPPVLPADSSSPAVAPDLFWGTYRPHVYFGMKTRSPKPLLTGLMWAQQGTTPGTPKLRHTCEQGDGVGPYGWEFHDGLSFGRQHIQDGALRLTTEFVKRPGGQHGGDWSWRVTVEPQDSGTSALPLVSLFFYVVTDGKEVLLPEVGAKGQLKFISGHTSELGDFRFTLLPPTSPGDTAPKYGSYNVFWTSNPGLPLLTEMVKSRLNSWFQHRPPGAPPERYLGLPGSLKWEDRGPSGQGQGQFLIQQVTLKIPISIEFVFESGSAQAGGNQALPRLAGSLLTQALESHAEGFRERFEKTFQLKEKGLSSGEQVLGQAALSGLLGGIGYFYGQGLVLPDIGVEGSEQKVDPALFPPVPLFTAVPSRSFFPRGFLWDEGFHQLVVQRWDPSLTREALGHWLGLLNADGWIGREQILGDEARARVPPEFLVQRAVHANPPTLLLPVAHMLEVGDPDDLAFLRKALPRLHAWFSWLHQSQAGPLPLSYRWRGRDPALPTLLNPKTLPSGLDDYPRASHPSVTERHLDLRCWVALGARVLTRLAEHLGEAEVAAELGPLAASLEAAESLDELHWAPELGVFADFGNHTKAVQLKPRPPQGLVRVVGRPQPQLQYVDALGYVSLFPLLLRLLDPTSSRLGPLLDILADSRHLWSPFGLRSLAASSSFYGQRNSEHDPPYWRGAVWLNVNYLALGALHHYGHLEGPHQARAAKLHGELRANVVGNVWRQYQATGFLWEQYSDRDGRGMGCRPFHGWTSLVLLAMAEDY
UniProt Q9NZW5: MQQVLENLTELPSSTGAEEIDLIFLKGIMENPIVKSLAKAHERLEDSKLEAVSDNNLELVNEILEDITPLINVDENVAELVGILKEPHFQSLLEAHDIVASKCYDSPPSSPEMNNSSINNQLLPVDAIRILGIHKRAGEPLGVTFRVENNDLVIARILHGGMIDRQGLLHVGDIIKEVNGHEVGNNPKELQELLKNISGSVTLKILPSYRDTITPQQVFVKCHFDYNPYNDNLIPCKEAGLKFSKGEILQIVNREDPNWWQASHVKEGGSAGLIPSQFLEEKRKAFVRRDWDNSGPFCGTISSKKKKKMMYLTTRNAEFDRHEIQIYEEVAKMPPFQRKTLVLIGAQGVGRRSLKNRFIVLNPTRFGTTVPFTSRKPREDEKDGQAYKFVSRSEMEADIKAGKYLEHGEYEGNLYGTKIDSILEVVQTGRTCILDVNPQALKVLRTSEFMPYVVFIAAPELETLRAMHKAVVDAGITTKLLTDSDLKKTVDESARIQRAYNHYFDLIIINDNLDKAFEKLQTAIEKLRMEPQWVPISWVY
UniProt Q14165: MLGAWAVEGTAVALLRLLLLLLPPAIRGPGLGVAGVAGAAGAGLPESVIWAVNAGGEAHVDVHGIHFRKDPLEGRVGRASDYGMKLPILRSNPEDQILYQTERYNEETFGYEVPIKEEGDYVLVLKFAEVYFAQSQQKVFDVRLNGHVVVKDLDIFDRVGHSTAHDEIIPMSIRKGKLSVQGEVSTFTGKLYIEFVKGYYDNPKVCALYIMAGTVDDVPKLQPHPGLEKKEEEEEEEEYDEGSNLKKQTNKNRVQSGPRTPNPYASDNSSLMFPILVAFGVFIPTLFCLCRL
UniProt Q9BQP7: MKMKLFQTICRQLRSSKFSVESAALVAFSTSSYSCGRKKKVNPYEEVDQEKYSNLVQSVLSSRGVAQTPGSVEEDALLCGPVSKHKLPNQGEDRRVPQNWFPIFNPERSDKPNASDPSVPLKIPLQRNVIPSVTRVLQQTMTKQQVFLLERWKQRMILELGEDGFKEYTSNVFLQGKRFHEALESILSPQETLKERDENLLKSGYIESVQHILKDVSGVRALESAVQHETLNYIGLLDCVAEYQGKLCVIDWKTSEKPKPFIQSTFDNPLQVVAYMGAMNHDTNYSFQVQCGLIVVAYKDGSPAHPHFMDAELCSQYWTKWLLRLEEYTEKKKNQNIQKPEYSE
UniProt Q9Y5U8: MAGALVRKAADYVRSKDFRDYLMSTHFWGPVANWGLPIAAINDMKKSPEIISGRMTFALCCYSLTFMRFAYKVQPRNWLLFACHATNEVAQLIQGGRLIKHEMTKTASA
UniProt Q7L1V2: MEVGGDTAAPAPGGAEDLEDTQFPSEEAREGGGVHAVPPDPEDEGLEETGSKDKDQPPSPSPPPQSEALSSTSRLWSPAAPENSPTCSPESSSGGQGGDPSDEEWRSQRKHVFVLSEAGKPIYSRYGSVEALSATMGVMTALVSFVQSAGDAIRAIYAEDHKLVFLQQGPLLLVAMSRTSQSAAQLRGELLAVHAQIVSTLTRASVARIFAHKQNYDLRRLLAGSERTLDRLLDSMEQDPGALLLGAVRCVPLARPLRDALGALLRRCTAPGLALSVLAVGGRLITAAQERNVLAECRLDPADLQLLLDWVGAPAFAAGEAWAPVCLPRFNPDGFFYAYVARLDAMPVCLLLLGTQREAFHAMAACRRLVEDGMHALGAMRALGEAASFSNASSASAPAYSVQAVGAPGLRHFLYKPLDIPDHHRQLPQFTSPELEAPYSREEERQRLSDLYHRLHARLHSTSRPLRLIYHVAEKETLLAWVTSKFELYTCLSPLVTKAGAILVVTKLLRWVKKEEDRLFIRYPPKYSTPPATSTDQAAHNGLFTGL

[1] = compound: CC(=O)c1cnc2ccc(-c3cc(Cl)c(O)c(Cl)c3)nc2c1N[C@H]1CC[C@H](CN(C)C)CC1
How it was run: as §1

ralimetinib = compound: CC(C)(C)Cn1c(N)nc2ccc(-c3[nH]c(C(C)(C)C)nc3-c3ccc(F)cc3)nc21 [ralimetinib]
How it was run: as §1

[2] = compound: CC(C)(O)CC(=O)NCCn1ccc2ncnc(Nc3ccc(Oc4cccc(C(F)(F)F)c4)c(Cl)c3)c21
How it was run: as §1

[3] = compound: CC(C)C1=C2N=C(C=C(N2N=C1)NCC3=CC=CC=C3)NCCCCCCN
How it was run: as §1

[4] = compound: CC1=C(C(CC(=O)N1)C2=CC=C(C=C2)C(F)(F)F)C(=O)NC3=C(C=C4C(=C3)C=NN4)F
How it was run: as §1

[5] = compound: CC1=C(C2=C(C=C1)C(=O)C3=CC=CC=C3N2CCCN)C
How it was run: as §1

[6] = compound: CC1=C(C=C(C=C1)NC(=O)C2=CC(=CC=C2)C(C)(C)C#N)NC3=CC4=C(C=C3)N=CN(C4=O)C
How it was run: as §1

[7] = compound: CC1=C(C=C(C=C1)NC(=O)C2=CC(=CC=C2)N(C)C)NC(=O)C3=CC=C(C=C3)O
How it was run: as §1

[8] = compound: CC1=CC=C(C=C1)SC2=C3C=C(SC3=CN=C2)C(=O)N
How it was run: as §1

vemurafenib = compound: CCCS(=O)(=O)Nc1ccc(F)c(C(=O)c2c[nH]c3ncc(-c4ccc(Cl)cc4)cc23)c1F [vemurafenib]
How it was run: as §1

[9] = compound: CCCS(=O)(=O)Nc1ccc(F)c(C(=O)c2c[nH]c3ncc(Cl)cc23)c1F
How it was run: as §1

barasertib = compound: CCN(CCCOc1ccc2c(Nc3cc(CC(=O)Nc4cccc(F)c4)[nH]n3)ncnc2c1)CCOP(=O)(O)O [barasertib]
How it was run: as §1

[10] = compound: CC[C@@H]1C(=O)N(C)c2cnc(Nc3ccc(C(=O)NC4CCN(C)CC4)cc3OC)nc2N1C1CCCC1
How it was run: as §1

volasertib = compound: CC[C@@H]1C(=O)N(C)c2cnc(Nc3ccc(C(=O)N[C@H]4CC[C@H](N5CCN(CC6CC6)CC5)CC4)cc3OC)nc2N1C(C)C [volasertib]
How it was run: as §1

[11] = compound: CCn1c(C(=O)N(C2CC2)C2CC2)cc2c3c(ncn3C)c(Nc3cc(C)n(C)n3)nc21
How it was run: as §1

[12] = compound: CCn1cc(-c2ccnc3[nH]c(-c4cccc(CN(C)C)c4)cc23)c(-c2ccc(NC(=O)N(C)C)cc2)n1
How it was run: as §1

[13] = compound: CN1CCC(CNc2ccc3ncc(-c4cccc(OC(F)(F)F)c4)n3n2)CC1
How it was run: as §1

saracatinib = compound: CN1CCN(CCOc2cc(OC3CCOCC3)c3c(Nc4c(Cl)ccc5c4OCO5)ncnc3c2)CC1 [saracatinib]
How it was run: as §1

sotrastaurin = compound: CN1CCN(c2nc(C3=C(c4c[nH]c5ccccc45)C(=O)NC3=O)c3ccccc3n2)CC1 [sotrastaurin]
How it was run: as §1

Target | log2 fold change (ibrutinib) | log2 fold change [1] | log2 fold change (ralimetinib) | log2 fold change [2] | log2 fold change [3] | log2 fold change [4] | log2 fold change [5] | log2 fold change [6] | log2 fold change [7] | log2 fold change [8] | log2 fold change (vemurafenib) | log2 fold change [9] | log2 fold change (barasertib) | log2 fold change [10] | log2 fold change (volasertib) | log2 fold change [11] | log2 fold change [12] | log2 fold change [13] | log2 fold change (saracatinib) | log2 fold change (sotrastaurin)
MICAL1 isoform 4 (UniProt Q8TDZ2) | inactive: 0.026 | inactive: -0.026 | inactive: -0.002 | inactive: 0.023 | inactive: 0.036 | inactive: -0.034 | inactive: 0.028 | inactive: 0.008 | inactive: -0.001 | inactive: -0.044 | inactive: -0.013 | inactive: 0.002 | inactive: 0.018 | inactive: 0.028 | inactive: -0.011 | inactive: -0.004 | inactive: 0.026 | inactive: -0.03 | inactive: 0.065 | inactive: -0.047
MOGS (UniProt Q13724) | inactive: 0.021 | inactive: 0.018 | inactive: 0.014 | inactive: 0.023 | inactive: 0.049 | inactive: 0.046 | inactive: 0.012 | inactive: -0.014 | inactive: 0.023 | inactive: 0.034 | inactive: 0.046 | inactive: 0.01 | inactive: 0.011 | inactive: 0.029 | inactive: -0.008 | inactive: -0.004 | inactive: -0.003 | inactive: 0.018 | inactive: 0.019 | inactive: 0.016
MPP6 (UniProt Q9NZW5) | inactive: -0.017 | inactive: 0.011 | inactive: 0.004 | inactive: -0.035 | inactive: -0.001 | inactive: 0.013 | inactive: 0.02 | inactive: -0.024 | inactive: 0.018 | inactive: 0.021 | inactive: -0.003 | inactive: 0.009 | inactive: 0.008 | inactive: 0.061 | inactive: -0.032 | inactive: 0.021 | inactive: -0.002 | inactive: -0.039 | inactive: 0.024 | inactive: 0.003
MLEC (UniProt Q14165) | inactive: 0.026 | inactive: -0.009 | inactive: 0.007 | inactive: -0.001 | inactive: 0.005 | inactive: -0.01 | inactive: 0.015 | inactive: -0.009 | inactive: -0.052 | inactive: 0.016 | inactive: -0.008 | inactive: 0.007 | inactive: 0.013 | inactive: -0.006 | inactive: 0.027 | inactive: -0.023 | inactive: 0.073 | inactive: -0.022 | inactive: -0.018 | inactive: -0.032
MGME1 (UniProt Q9BQP7) | inactive: -0.025 | inactive: -0.003 | inactive: 0.019 | inactive: -0.004 | inactive: -0.008 | inactive: -0.008 | inactive: 0.016 | inactive: 0.008 | inactive: -0.007 | inactive: -0.028 | inactive: 0.003 | inactive: 0.002 | inactive: 0 | inactive: -0.024 | inactive: -0.011 | inactive: -0.037 | inactive: 0.016 | inactive: -0.014 | inactive: 0.009 | inactive: 0.012
MPC1 (UniProt Q9Y5U8) | inactive: -0.089 | inactive: -0.026 | inactive: 0.077 | inactive: -0.075 | inactive: 0.066 |  | inactive: -0.039 | inactive: 0.009 | inactive: 0.01 | inactive: -0.041 | inactive: 0.076 | inactive: 0.077 | inactive: 0.055 | inactive: 0.052 | inactive: 0.034 | inactive: -0.078 | inactive: 0.279 | inactive: -0.369 | inactive: 0.15 | inactive: -0.005
MRPL12 (UniProt P52815) | inactive: 0.082 | inactive: -0.05 | inactive: 0.006 | inactive: -0.013 | inactive: -0.029 | inactive: -0.042 | inactive: 0 | inactive: 0.026 | inactive: 0.012 | inactive: 0.076 | inactive: 0.01 | inactive: -0.026 | inactive: 0.181 | inactive: 0.036 | inactive: 0.103 | inactive: -0.019 | active: -0.412 | inactive: -0.032 | inactive: 0.004 | inactive: 0.015
MON1B (UniProt Q7L1V2) | inactive: 0.018 | inactive: 0.013 | inactive: 0.045 | inactive: -0.029 | inactive: -0.024 | inactive: 0.066 | inactive: -0.016 | inactive: -0.056 | inactive: -0.012 | inactive: -0.003 | inactive: -0.019 | inactive: 0.029 | inactive: -0.007 | inactive: 0.018 | inactive: -0.013 | inactive: -0.01 | inactive: -0.025 | inactive: 0.056 | inactive: 0.019 | inactive: 0.04

Quoted from the listing (2 entries):
Target | log2 fold change (ibrutinib) | log2 fold change [1] | log2 fold change (ralimetinib) | log2 fold change [2] | log2 fold change [3] | log2 fold change [4] | log2 fold change [5] | log2 fold change [6] | log2 fold change [7] | log2 fold change [8] | log2 fold change (vemurafenib) | log2 fold change [9] | log2 fold change (barasertib) | log2 fold change [10] | log2 fold change (volasertib) | log2 fold change [11] | log2 fold change [12] | log2 fold change [13] | log2 fold change (saracatinib) | log2 fold change (sotrastaurin)
MPC1 (UniProt Q9Y5U8) | inactive: -0.089 | inactive: -0.026 | inactive: 0.077 | inactive: -0.075 | inactive: 0.066 |  | inactive: -0.039 | inactive: 0.009 | inactive: 0.01 | inactive: -0.041 | inactive: 0.076 | inactive: 0.077 | inactive: 0.055 | inactive: 0.052 | inactive: 0.034 | inactive: -0.078 | inactive: 0.279 | inactive: -0.369 | inactive: 0.15 | inactive: -0.005
MRPL12 (UniProt P52815) | inactive: 0.082 | inactive: -0.05 | inactive: 0.006 | inactive: -0.013 | inactive: -0.029 | inactive: -0.042 | inactive: 0 | inactive: 0.026 | inactive: 0.012 | inactive: 0.076 | inactive: 0.01 | inactive: -0.026 | inactive: 0.181 | inactive: 0.036 | inactive: 0.103 | inactive: -0.019 | active: -0.412 | inactive: -0.032 | inactive: 0.004 | inactive: 0.015
